Measured values: PMC9469100, “Turning Nonselective Inhibitors of Type I Protein Arginine Methyltransferases into Potent and Selective Inhibitors of Protein Arginine Methyltransferase 4 through a Deconstruction–Reconstruction and Fragment-Growing Approach” (Journal of Medicinal Chemistry, 2022)

Assay: Parallel artificial membrane permeability assay (PAMPA)
Assay type: in vitro ADME
Conditions: phosphate buffer pH 7.4, donor 0.2 mM, 24 h at room temperature
Method: A donor solution (0.2 mM) was prepared by diluting 20 mM dimethyl sulfoxide (DMSO) compound stock solution using phosphate buffer (pH 7.4, 0.01 M). Filters were coated with 5 μL of a 1% (w/v) dodecane solution of L-α-phosphatidylcholine. Donor solution (150 μL) was added to each well of the filter plate. To each well of the acceptor plate, 300 μL of solution (5% DMSO in phosphate buffer) was added. Selected compounds were tested in triplicate; propranolol and furosemide were used as positive and negative controls. The sandwich was incubated for 24 h at room temperature under gentle shaking. After the incubation time, the sandwich plates were separated, and 250 μL of the acceptor plate was transferred to a UV quartz microtiter plate and measured by UV spectroscopy, using a Multiskan GO microplate spectrophotometer (Thermo Fisher Scientific) at 250–500 nm at a step of 5 nm. Reference solutions (250 μL) were prepared diluting the sample stock solutions to the same concentration as that with no membrane barrier. The apparent permeability value Papp is determined from the ratio r of the absorbance of the compound found in the acceptor chamber divided by the theoretical equilibrium absorbance (determined independently), the Faller modification[133] of the Sugano equation:[134] [drawing 1] […]

- Papp at 24 h, 0.2 mM: 0.034 ×10⁻⁶ cm/s
SMILES: NS(=O)(=O)c1cc(C(=O)O)c(NCc2ccco2)cc1Cl [furosemide, reference compound]
